# Test results taken from PubChem BioAssay AID2685 (National Center for Advancing Translational Sciences (NCATS), 2010).
# Among all 320,000 compounds or so, about 2,100 (0.66%) were called active. The inconclusive results got no clear call from the source; some entries with a clear call stand among them for comparison. Calls come from the whole dose curve; as a rule, active = well fitted inhibition curve with a large enough effect in the signal ratio, with a control signal flat (not every such curve was filed as active); inconclusive = small, poorly fitted or top-dose-only effect, or effect the other way, or a change in a side signal; inactive = flat fitted curve, though single readings scatter; the % refers to the signal ratio. Potencies of inconclusive entries are doubtful fits and often do not repeat.
# Assay: qHTS Assay for Lipid Storage Modulators in Drosophila S3 Cells
# Settings: BODIPY lipid droplet fluorescence, 18-24 h, cells fed with added oleic acid; lipid storage change, negative = inhibition: at 46.1 µM (top of the series) unless noted
# How it was run: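 Drosophila S3 cells loaded with oleic acid (400 uM, as added) and compounds at several concentrations; lipid droplets imaged by 488-nm laser-scanning cytometry, 500–530 nm intensity and object ratio to cell channel. Percent activity normalized to 20 uM Triacsin C.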
# % is set by controls: 0 for no effect and ±100 for the full control effect; potency is the fitted concentration of half-maximal effect.
Compound,Potency,"lipid storage change, negative = inhibition"
CN(C(=O)COC(=O)CNS(=O)(=O)/C=C/c1ccccc1)C1CCS(=O)(=O)C1 (stereo not drawn),"inconclusive: 29.1 µM [activator, single point]",–
CC(C)Cn1nc(NC(=O)C2CCCO2)c2cc3ccccc3nc21 (stereo not drawn),–,inconclusive: 41.7%
Fc1cccc(-c2nn[nH]n2)c1,"inconclusive: 0.731 µM [falling, single point]",–
CC1(C)NC(=O)N(CC(=O)OCC(=O)c2ccc(F)cc2)C1=O,–,inconclusive
COc1ccc(N2CCN(c3cnc4ccccc4n3)CC2)cc1,–,inconclusive: 7.74%
CS(=O)(=O)c1ccc(C(=O)OCC(=O)NC(=O)C2CCCCC2)cc1[N+](=O)[O-],"inconclusive: 18.4 µM [cytotoxic, single point]",–
O=C(Cc1ccc(-n2c(=O)c3sccc3n(CC(=O)Nc3ccccc3)c2=O)cc1)NCc1ccco1,–,inconclusive: 16.3% [at 9.22 µM]
CCOC(=O)Cc1csc(NC(=O)c2ccc3c(c2)OCO3)n1,–,inconclusive: 110%
Cc1cc(-c2ccccc2)nc(N(C)C)c1S(C)(=O)=O,–,inconclusive: -1.92%
COc1ccc(C(=O)/C=C/c2ccc(OC)c(Cn3nnc4ccccc43)c2)cc1,"inconclusive: 29.1 µM [falling, single point]",–
CCC1SC2=NC(C)=C(C(=O)OC)C(c3cccs3)N2C1=O (stereo not drawn),"inconclusive: 29.1 µM [falling, single point]",–
NC(=O)c1ccc(SCC(=O)OCC(=O)NCc2ccco2)c([N+](=O)[O-])c1,–,inconclusive: -3.18%
CC(C)c1ccc(C(C(=O)NC2CCCCC2)N(C(=O)c2csnn2)C2CC2)cc1 (stereo not drawn),"inconclusive: 1.46 µM [activator, partial curve]",–
COC(=O)c1oc2ccc(Cl)cc2c1N,"inconclusive: 2.59 µM [activator, partial curve]",–
Cc1c(C(=O)OC2CCC(C)CC2)[nH]c2c1C(=O)CCC2 (stereo not drawn),–,inconclusive: 15.7%
CC(C)N(c1ccccc1)c1ncnc(NCCC(=O)O)c1[N+](=O)[O-],–,inconclusive: -10.2%
COc1ccccc1-n1nnnc1SCC(=O)N(C)C1CCS(=O)(=O)C1 (stereo not drawn),–,inconclusive: 3.42%
N#CCC(=O)Nc1ccc(C(=O)OCC(=O)N2CCCC2=O)cc1,–,inconclusive
NC(=O)C1CCCN(Cc2ccc3ccccc3c2)C1 (stereo not drawn),–,inactive
COc1ccc(S(=O)(=O)N(CCc2ccccc2)CC(=O)NC(C)C)cc1,"inconclusive: 13 µM [activator, partial curve]",–
O=C(COc1ccccc1)N(Cc1nnc(-c2ccccc2Cl)o1)C1CC1,–,inconclusive: -68.4%
N=c1oc2cc(O)ccc2cc1C(=O)Nc1nc2ccccc2s1,–,inconclusive: 15.7%
COCC(=O)Nc1nc(-c2ccc(C)cc2)c(C)s1,–,inconclusive: -11.1%
Cc1nc2sccn2c(=O)c1CCN1CCC(=C(c2ccccc2)c2ccc(F)cc2)CC1,"inconclusive: 18.4 µM [activator, single point]",–

Compound,Potency,"lipid storage change, negative = inhibition"
CC(NC(=O)COC(=O)CNC(=O)c1ccccc1Cl)C1CC2CCC1C2 (stereo not drawn),"inconclusive: 29.1 µM [activator, single point]",–
COC(=O)C1=C(C)NC(=O)NC1c1c(O)ccc2ccccc12 (stereo not drawn),"inconclusive: 29.1 µM [activator, single point]",–
COc1cccc(C(=O)Nc2cc3c(cc2C(C)=O)OCCO3)c1,"inconclusive: 2.06 µM [activator, partial curve, poor fit]",–
COc1ccc(C(C)(C)C)cc1NC(=O)CN1C(=O)C(=O)N(Cc2ccco2)C1=O,"inconclusive: 0.0046 µM [falling, full curve, poor fit]",–
CCOc1ccc(N(CC(=O)NCCSCc2ccccc2)S(C)(=O)=O)cc1,–,inactive
Cc1ccc(C(CC(=O)O)NC(=O)CCNC(=O)c2ccco2)cc1 (stereo not drawn),–,inconclusive
O=C(Nc1ccc(Cl)cc1N1CCOCC1)C1CCCCC1,–,inconclusive: -23%
O=C(Nc1ccc(Cl)c(S(=O)(=O)N2CCOCC2)c1)c1cc(=O)[nH]c2ccccc12,–,inconclusive: 20.3%
Cn1c(=O)n(C)c2cc([N+](=O)[O-])c(N3CCN(C(=O)c4ccccc4Cl)CC3)cc21,–,inconclusive: -29.1%
CCOC(=O)c1cnc(SSc2ncc(C(=O)OCC)c(N)n2)nc1N,–,inconclusive: -88.1%
O=[N+]([O-])c1ccccc1N(CC1CO1)S(=O)(=O)c1ccccc1 (stereo not drawn),–,inconclusive: -0.54%
CCOc1ccccc1NC(=O)C(NCC1(N2CCCCC2)CCCCC1)c1ccccc1 (stereo not drawn),–,inconclusive: 38.4%
CC(CN1CCOCC1)OC(=O)c1cccc(Br)c1 (stereo not drawn),–,inconclusive: -21.2%
COc1cc(C2NC(=O)NC(C)=C2C(=O)NCc2ccccc2)c(Cl)cc1O (stereo not drawn),–,inconclusive: 28.7%
COc1ccc(/C=N/NC(=O)c2ccn[nH]2)cc1Cn1nc(C)c([N+](=O)[O-])c1C,"inconclusive: 23.1 µM [activator, single point]",–
CCn1nc(NC(=O)C2CCCO2)c2cc3cc(C)ccc3nc21 (stereo not drawn),–,inconclusive: -53.9% [cytotoxic] [at 0.00295 µM]
CCN(CC(=O)Nc1ccc(OC)cc1)C(=O)c1ccc2c(=O)n3c(nc2c1)CCC3,"inconclusive: 3.66 µM [activator, single point]",–
Cc1ccc(S(=O)(=O)N2CCOC23CCN(C(=O)C(=O)NCCC(C)C)CC3)cc1,–,inconclusive: 31%
O=c1[nH]c(CN(CCO)CCO)nc2c1C1(CCCCC1)Cc1ccccc1-2,–,inconclusive: 6.07%
O=C1c2ccccc2C(=O)N1OCc1cccc(Cl)c1,–,inconclusive: 0.622%
O=C(c1cc(C2CC2)nn1-c1ccccc1)N1CCN(S(=O)(=O)c2ccccc2)CC1,active: 16.4 µM,–
CCCNC(=O)Cn1cnc2sc(C(=O)N3CCN(c4ccc(F)cc4)CC3)c(C)c2c1=O,–,inconclusive: 15%
Cc1ccc(C)c(NC(=O)c2cc[n+](C)cc2)c1,–,inactive
CC(=O)Nc1ccc(S(=O)(=O)NC2=NCN(C)CN2)cc1,–,inconclusive: 45.8%

# Molecules shown so far that have an aryl thioether with sulfur outside any ring, in the order listed:
Compound,Potency,"lipid storage change, negative = inhibition"
NC(=O)c1ccc(SCC(=O)OCC(=O)NCc2ccco2)c([N+](=O)[O-])c1,–,inconclusive: -3.18%
COc1ccccc1-n1nnnc1SCC(=O)N(C)C1CCS(=O)(=O)C1 (stereo not drawn),–,inconclusive: 3.42%
